The target in assay [1] is Flag-UXT (human) (UniProt Q9UBK9). Nature of the assay: co-IP; co-transfected 786-O cells (EZH2 wild type), whole cell lysate, precipitated with anti-Flag, blotted with anti-Myc or anti-HA.
The target is the same in assay [2]. Nature of the assay: co-IP; co-transfected HEK293T (293 T) cells, whole cell lysate, precipitated with anti-Flag, blotted with anti-Myc or anti-HA; in some panels with overexpressed EZH2 or UXT.
The next assay deals with GST-UXT (human) (UniProt Q9UBK9). Nature of the assay: pull-down; GST, GST-EZH2 or GST-UXT purified from E. coli on glutathione-Sepharose 4B, incubated with lysates of HEK293T cells transfected with Flag-UXT or Flag-EZH2; immunoblot with anti-Flag; only the target purified.

By UniProt entry, the sequences of proteins in these tests, tags left out. Where a name states a change or a piece, a line headed by the entry shows the natural chain unless it says otherwise. Chains listed by the source or under a name are the forms on record and can include a tag or linker.
UniProt Q9UBK9: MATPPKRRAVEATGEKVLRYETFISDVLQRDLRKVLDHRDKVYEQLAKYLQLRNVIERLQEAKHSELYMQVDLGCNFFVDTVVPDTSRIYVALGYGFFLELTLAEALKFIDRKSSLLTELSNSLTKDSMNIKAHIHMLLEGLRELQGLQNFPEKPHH
Flag-EZH2 (Q15910-2, form named): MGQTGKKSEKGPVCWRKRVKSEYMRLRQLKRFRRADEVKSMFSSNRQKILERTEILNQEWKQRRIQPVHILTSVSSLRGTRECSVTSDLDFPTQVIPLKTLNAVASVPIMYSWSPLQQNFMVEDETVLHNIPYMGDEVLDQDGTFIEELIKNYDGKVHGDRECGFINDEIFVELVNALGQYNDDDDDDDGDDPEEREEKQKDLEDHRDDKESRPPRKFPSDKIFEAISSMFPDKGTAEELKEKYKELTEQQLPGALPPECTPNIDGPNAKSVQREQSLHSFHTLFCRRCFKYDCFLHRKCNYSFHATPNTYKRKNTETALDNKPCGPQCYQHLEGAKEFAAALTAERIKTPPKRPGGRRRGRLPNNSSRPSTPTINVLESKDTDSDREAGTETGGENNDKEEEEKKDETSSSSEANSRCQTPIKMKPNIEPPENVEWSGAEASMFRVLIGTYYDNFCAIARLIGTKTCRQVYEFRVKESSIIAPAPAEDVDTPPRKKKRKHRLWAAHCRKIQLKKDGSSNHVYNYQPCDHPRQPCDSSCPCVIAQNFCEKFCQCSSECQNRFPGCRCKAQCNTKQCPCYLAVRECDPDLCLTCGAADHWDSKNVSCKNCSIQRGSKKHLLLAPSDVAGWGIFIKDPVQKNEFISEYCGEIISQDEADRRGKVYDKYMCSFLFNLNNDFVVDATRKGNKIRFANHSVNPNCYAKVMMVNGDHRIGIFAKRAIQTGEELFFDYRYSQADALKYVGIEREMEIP

No constants are given. Whether binding was seen depends on the method and setting. Binding seen in cells or lysates may run through a third protein. Some binding calls cover weakened binding; strength is not graded here.

Regarding HA-EZH2 (from UniProt Q15910-2 1-751), the binding result with Flag-UXT (human) [1] and with Flag-UXT (human) [2] was “binds” throughout.

Turning to Flag-EZH2 (from UniProt Q15910-2 1-751), the binding entry in the assay with GST-UXT (human) was “binds”.

These data come from article PMC6724258.
